Assay results taken from the supplement of paper PMC7661543.
± gives the standard deviation of the averaged measurements. The effect of the compound repeats well; differences between the knockouts mostly do not.

Test system: HCC-38
Experiment: relative cell number vs DMSO control (72 h) (% of DMSO); higher = less growth inhibition (more cells)
Method: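 QMAP-Seq: a pool of 5 breast cancer cell lines (ZR-75-1, SKBR3, HCC-38, MDA-MB-231, BT-20), each carrying 12 doxycycline-inducible Cas9 sgRNA perturbations (11 knockouts plus non-targeting sgNT), was treated with compounds for 72 h at four 10-fold doses (10 nM-10 uM or 1 nM-1 uM range). Barcodes were amplified and sequenced, and cell number was interpolated from 293T spike-in standard curves. The result is expressed as % of the median of DMSO wells. Two biological replicates.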

[1] = sgRNA knockout: sgATF3, 1000 nM
[2] = sgRNA knockout: sgATF3, 10000 nM
[3] = sgRNA knockout: sgATF4, 1000 nM
[4] = sgRNA knockout: sgATF4, 10000 nM
[5] = sgRNA knockout: sgATF6, 1000 nM
[6] = sgRNA knockout: sgATF6, 10000 nM
[7] = sgRNA knockout: sgATG7, 1000 nM
[8] = sgRNA knockout: sgATG7, 10000 nM
[9] = sgRNA knockout: sgERN1, 1000 nM
[10] = sgRNA knockout: sgERN1, 10000 nM
[11] = sgRNA knockout: sgHSF1, 1000 nM
[12] = sgRNA knockout: sgHSF1, 10000 nM
[13] = sgRNA knockout: sgHSF2, 1000 nM
[14] = sgRNA knockout: sgHSF2, 10000 nM
[15] = sgRNA knockout: sgKEAP1, 100 nM
[16] = sgRNA knockout: sgKEAP1, 1000 nM
[17] = sgRNA knockout: sgKEAP1, 10000 nM
[18] = sgRNA knockout: sgNFE2L2, 10 nM
[19] = sgRNA knockout: sgNFE2L2, 100 nM
[20] = sgRNA knockout: sgNFE2L2, 1000 nM
[21] = sgRNA knockout: sgNFE2L2, 10000 nM
[22] = sgRNA knockout: sgSLC35F2, 10 nM
[23] = sgRNA knockout: sgSLC35F2, 100 nM
[24] = sgRNA knockout: sgSLC35F2, 1000 nM
[25] = sgRNA knockout: sgSLC35F2, 10000 nM
[26] = sgRNA knockout: sgXBP1, 1000 nM
[27] = sgRNA knockout: sgXBP1, 10000 nM

Compound: Nc1ccn([C@@H]2O[C@H](CO)[C@@H](O)C2(F)F)c(=O)n1 [Gemcitabine]
- relative cell number (sgRNA knockout: sgATF3, 10 nM): 20.9 ± 0.94
- relative cell number (sgRNA knockout: sgATF3, 100 nM): 13 ± 3.1
- relative cell number [1]: 11.9 ± 5.5
- relative cell number [2]: 12.5 ± 0.23
- relative cell number (sgRNA knockout: sgATF4, 10 nM): 19.41 ± 0.091
- relative cell number (sgRNA knockout: sgATF4, 100 nM): 12.2 ± 1.5
- relative cell number [3]: 13.2 ± 5.7
- relative cell number [4]: 12.9 ± 1.7
- relative cell number (sgRNA knockout: sgATF6, 10 nM): 19.9 ± 1.3
- relative cell number (sgRNA knockout: sgATF6, 100 nM): 15 ± 0.19
- relative cell number [5]: 12.3 ± 5.7
- relative cell number [6]: 13.3 ± 2
- relative cell number (sgRNA knockout: sgATG7, 10 nM): 21.4 ± 3.5
- relative cell number (sgRNA knockout: sgATG7, 100 nM): 11.7 ± 1.2
- relative cell number [7]: 13.4 ± 6.2
- relative cell number [8]: 11.2 ± 3.1
- relative cell number (sgRNA knockout: sgERN1, 10 nM): 24.5 ± 3.5
- relative cell number (sgRNA knockout: sgERN1, 100 nM): 10.2 ± 0.99
- relative cell number [9]: 13.4 ± 4.4
- relative cell number [10]: 12.4 ± 2.9
- relative cell number (sgRNA knockout: sgHSF1, 10 nM): 31.5 ± 6.8
- relative cell number (sgRNA knockout: sgHSF1, 100 nM): 18.3 ± 2.7
- relative cell number [11]: 14.1 ± 8.9
- relative cell number [12]: 13.5 ± 0.7
- relative cell number (sgRNA knockout: sgHSF2, 10 nM): 21.6 ± 5.8
- relative cell number (sgRNA knockout: sgHSF2, 100 nM): 12.9 ± 3.2
- relative cell number [13]: 12.6 ± 7.1
- relative cell number [14]: 13.8 ± 3.3
- relative cell number (sgRNA knockout: sgKEAP1, 10 nM): 26 ± 0.88
- relative cell number [15]: 12.3 ± 0.81
- relative cell number [16]: 15.3 ± 2.6
- relative cell number [17]: 17.2 ± 3.5
- relative cell number [18]: 16.1 ± 2
- relative cell number [19]: 10.6 ± 1.2
- relative cell number [20]: 10.6 ± 6
- relative cell number [21]: 10.3 ± 1.5
- relative cell number [22]: 22.2 ± 1.6
- relative cell number [23]: 11.8 ± 0.39
- relative cell number [24]: 14.7 ± 5.8
- relative cell number [25]: 13.2 ± 4.2
- relative cell number (sgRNA knockout: sgXBP1, 10 nM): 21.8 ± 1.1
- relative cell number (sgRNA knockout: sgXBP1, 100 nM): 11.5 ± 0.83
- relative cell number [26]: 16.5 ± 3.2
- relative cell number [27]: 11 ± 0.82

Compound: Cc1cc2c(C(C)C)c(O)c(O)c(C=O)c2c(O)c1-c1c(C)cc2c(C(C)C)c(O)c(O)c(C=O)c2c1O [Gossypol]
- relative cell number (sgRNA knockout: sgATF3, 10 nM): 99.7 ± 12
- relative cell number (sgRNA knockout: sgATF3, 100 nM): 93.1 ± 12
- relative cell number [1]: 102 ± 6.7
- relative cell number [2]: 26.8 ± 2.7
- relative cell number (sgRNA knockout: sgATF4, 10 nM): 99 ± 14
- relative cell number (sgRNA knockout: sgATF4, 100 nM): 95.9 ± 22
- relative cell number [3]: 103 ± 0.38
- relative cell number [4]: 28.1 ± 2
- relative cell number (sgRNA knockout: sgATF6, 10 nM): 92.817 ± 0.049
- relative cell number (sgRNA knockout: sgATF6, 100 nM): 90.4 ± 14
- relative cell number [5]: 102.6 ± 0.97
- relative cell number [6]: 34.1 ± 7.4
- relative cell number (sgRNA knockout: sgATG7, 10 nM): 99 ± 9.9
- relative cell number (sgRNA knockout: sgATG7, 100 nM): 94.3 ± 16
- relative cell number [7]: 103 ± 3.7
- relative cell number [8]: 25.9 ± 1.4
- relative cell number (sgRNA knockout: sgERN1, 10 nM): 108 ± 9.3
- relative cell number (sgRNA knockout: sgERN1, 100 nM): 94.2 ± 11
- relative cell number [9]: 106 ± 12
- relative cell number [10]: 27.1 ± 1.1
- relative cell number (sgRNA knockout: sgHSF1, 10 nM): 125 ± 6.5
- relative cell number (sgRNA knockout: sgHSF1, 100 nM): 90.5 ± 1.4
- relative cell number [11]: 96.43 ± 0.62
- relative cell number [12]: 27.2 ± 3.1
- relative cell number (sgRNA knockout: sgHSF2, 10 nM): 103 ± 14
- relative cell number (sgRNA knockout: sgHSF2, 100 nM): 100 ± 2.5
- relative cell number [13]: 101 ± 4.4
- relative cell number [14]: 29.3 ± 0.62
- relative cell number (sgRNA knockout: sgKEAP1, 10 nM): 100 ± 24
- relative cell number [15]: 121 ± 13
- relative cell number [16]: 125 ± 10
- relative cell number [17]: 32.6 ± 3.3
- relative cell number [18]: 97.7 ± 2.1
- relative cell number [19]: 86.4 ± 13
- relative cell number [20]: 101 ± 11
- relative cell number [21]: 24.7 ± 3
- relative cell number [22]: 106 ± 12
- relative cell number [23]: 95.4 ± 10
- relative cell number [24]: 97.3 ± 3.2
- relative cell number [25]: 27.3 ± 2.3
- relative cell number (sgRNA knockout: sgXBP1, 10 nM): 102 ± 10
- relative cell number (sgRNA knockout: sgXBP1, 100 nM): 92.4 ± 20
- relative cell number [26]: 101 ± 3.3
- relative cell number [27]: 26.9 ± 2.3

Compound: COc1cc2c(cc1-c1c(C)noc1C)ncc1[nH]c(=O)n([C@H](C)c3ccccn3)c12 [IBET151]
- relative cell number (sgRNA knockout: sgATF3, 10 nM): 86.4 ± 8.1
- relative cell number (sgRNA knockout: sgATF3, 100 nM): 84.1 ± 14
- relative cell number [1]: 53.8 ± 1.3
- relative cell number [2]: 54.4 ± 7.8
- relative cell number (sgRNA knockout: sgATF4, 10 nM): 87.5 ± 18
- relative cell number (sgRNA knockout: sgATF4, 100 nM): 83.3 ± 12
- relative cell number [3]: 50.7 ± 5.2
- relative cell number [4]: 53.2 ± 4.1
- relative cell number (sgRNA knockout: sgATF6, 10 nM): 85.1 ± 14
- relative cell number (sgRNA knockout: sgATF6, 100 nM): 93.2 ± 18
- relative cell number [5]: 67.7 ± 0.7
- relative cell number [6]: 54.6 ± 6.3
- relative cell number (sgRNA knockout: sgATG7, 10 nM): 87.9 ± 13
- relative cell number (sgRNA knockout: sgATG7, 100 nM): 81.4 ± 6.3
- relative cell number [7]: 56.3 ± 5.4
- relative cell number [8]: 53.2 ± 12
- relative cell number (sgRNA knockout: sgERN1, 10 nM): 86.1 ± 9.6
- relative cell number (sgRNA knockout: sgERN1, 100 nM): 87.7 ± 15
- relative cell number [9]: 59.2 ± 2.2
- relative cell number [10]: 54.5 ± 5.5
- relative cell number (sgRNA knockout: sgHSF1, 10 nM): 88.6 ± 1.1
- relative cell number (sgRNA knockout: sgHSF1, 100 nM): 85.5 ± 6.6
- relative cell number [11]: 63.9 ± 1.5
- relative cell number [12]: 58.7 ± 0.64
- relative cell number (sgRNA knockout: sgHSF2, 10 nM): 108 ± 18
- relative cell number (sgRNA knockout: sgHSF2, 100 nM): 93.4 ± 4.8
- relative cell number [13]: 60.8 ± 8.3
- relative cell number [14]: 53.9 ± 1.6
- relative cell number (sgRNA knockout: sgKEAP1, 10 nM): 91 ± 21
- relative cell number [15]: 96.3 ± 4.4
- relative cell number [16]: 72.2 ± 12
- relative cell number [17]: 54.4 ± 1
- relative cell number [18]: 91 ± 17
- relative cell number [19]: 74.9 ± 11
- relative cell number [20]: 50.3 ± 1.1
- relative cell number [21]: 51.9 ± 10
- relative cell number [22]: 89.3 ± 8.4
- relative cell number [23]: 76.1 ± 12
- relative cell number [24]: 57.4 ± 1.6
- relative cell number [25]: 51.1 ± 5.2
- relative cell number (sgRNA knockout: sgXBP1, 10 nM): 88.6 ± 14
- relative cell number (sgRNA knockout: sgXBP1, 100 nM): 81.2 ± 9.7
- relative cell number [26]: 52.8 ± 4.6
- relative cell number [27]: 52.6 ± 4.8
